These are yes or no findings as the source states them, for the method shown. For part of these data: In cells and extracts the contact can be indirect. Some entries that bind do so weakly or less than the wild type.
What was measured:
[1] = target: GST-fused EZH2 N1 domain (aa 1-173) (UniProt Q15910); experiment: pull-down
[2] = target: His-tagged full-length USP7/WT purified from Sf9 cells (UniProt Q93009); experiment: pull-down
[3] = target: enhancer of zeste homolog 2 (EZH2), endogenous (human (endogenous in A375 and HEK293T)) (UniProt Q15910); experiment: SEC
[4] = target: enhancer of zeste homolog 2 (EZH2), endogenous (human (endogenous in A375 and HEK293T)) (UniProt Q15910); experiment: co-IP

By UniProt entry, the sequences of proteins in these tests, tags left out. Residues count along the entry.
UniProt Q15910, whole entry: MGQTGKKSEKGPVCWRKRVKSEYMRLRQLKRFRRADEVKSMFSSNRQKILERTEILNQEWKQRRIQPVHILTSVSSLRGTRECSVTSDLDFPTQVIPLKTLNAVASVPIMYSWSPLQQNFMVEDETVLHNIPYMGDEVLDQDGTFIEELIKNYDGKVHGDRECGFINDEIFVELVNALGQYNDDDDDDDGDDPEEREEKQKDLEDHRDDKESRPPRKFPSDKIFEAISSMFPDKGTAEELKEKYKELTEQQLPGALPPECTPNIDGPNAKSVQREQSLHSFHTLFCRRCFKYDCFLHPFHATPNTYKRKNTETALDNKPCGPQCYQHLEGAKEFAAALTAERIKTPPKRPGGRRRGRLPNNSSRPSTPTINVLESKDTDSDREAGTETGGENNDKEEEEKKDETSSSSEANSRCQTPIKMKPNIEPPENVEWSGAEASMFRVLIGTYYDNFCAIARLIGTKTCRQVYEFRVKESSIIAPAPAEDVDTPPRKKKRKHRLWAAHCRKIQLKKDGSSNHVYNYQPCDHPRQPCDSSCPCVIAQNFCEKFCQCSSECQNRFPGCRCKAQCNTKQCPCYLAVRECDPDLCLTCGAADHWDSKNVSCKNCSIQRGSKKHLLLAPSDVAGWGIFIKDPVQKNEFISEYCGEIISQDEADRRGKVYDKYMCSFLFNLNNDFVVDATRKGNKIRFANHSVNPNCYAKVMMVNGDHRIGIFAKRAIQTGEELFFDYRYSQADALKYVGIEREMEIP
UniProt Q15910, 1-173: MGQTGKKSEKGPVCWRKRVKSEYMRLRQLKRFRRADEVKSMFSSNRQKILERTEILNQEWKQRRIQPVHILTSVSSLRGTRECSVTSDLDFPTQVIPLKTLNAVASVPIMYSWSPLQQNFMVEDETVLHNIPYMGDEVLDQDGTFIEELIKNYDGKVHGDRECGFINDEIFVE
UniProt Q93009, whole entry: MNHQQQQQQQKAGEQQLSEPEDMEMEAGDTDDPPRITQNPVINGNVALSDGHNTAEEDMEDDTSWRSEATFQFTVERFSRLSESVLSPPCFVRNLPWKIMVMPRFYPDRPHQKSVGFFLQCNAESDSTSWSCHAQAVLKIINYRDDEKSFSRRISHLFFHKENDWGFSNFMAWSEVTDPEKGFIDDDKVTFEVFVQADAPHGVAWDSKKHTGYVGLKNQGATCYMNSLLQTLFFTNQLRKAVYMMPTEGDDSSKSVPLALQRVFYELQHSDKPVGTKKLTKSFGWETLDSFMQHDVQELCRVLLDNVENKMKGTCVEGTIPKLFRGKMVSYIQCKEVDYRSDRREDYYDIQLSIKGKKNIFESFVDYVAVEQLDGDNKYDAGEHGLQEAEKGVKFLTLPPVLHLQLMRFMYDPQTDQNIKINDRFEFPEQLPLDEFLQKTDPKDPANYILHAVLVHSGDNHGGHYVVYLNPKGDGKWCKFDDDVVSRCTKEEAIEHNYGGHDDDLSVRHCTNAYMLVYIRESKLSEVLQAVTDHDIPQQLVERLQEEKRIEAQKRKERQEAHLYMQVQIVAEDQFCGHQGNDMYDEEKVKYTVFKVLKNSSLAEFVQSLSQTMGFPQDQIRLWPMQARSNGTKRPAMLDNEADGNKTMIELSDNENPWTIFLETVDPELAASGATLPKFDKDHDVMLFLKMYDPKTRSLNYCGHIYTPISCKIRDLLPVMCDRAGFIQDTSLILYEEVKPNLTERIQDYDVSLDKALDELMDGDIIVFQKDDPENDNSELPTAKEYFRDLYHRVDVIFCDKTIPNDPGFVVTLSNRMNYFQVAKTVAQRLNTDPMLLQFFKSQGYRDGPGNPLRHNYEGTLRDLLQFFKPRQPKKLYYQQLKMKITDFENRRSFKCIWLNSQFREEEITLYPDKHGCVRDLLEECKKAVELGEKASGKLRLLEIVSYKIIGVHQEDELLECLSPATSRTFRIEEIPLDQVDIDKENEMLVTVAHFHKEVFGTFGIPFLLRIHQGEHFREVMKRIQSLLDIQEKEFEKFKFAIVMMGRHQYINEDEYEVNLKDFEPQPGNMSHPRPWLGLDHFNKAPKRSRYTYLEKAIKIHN
UniProt O75530, whole entry: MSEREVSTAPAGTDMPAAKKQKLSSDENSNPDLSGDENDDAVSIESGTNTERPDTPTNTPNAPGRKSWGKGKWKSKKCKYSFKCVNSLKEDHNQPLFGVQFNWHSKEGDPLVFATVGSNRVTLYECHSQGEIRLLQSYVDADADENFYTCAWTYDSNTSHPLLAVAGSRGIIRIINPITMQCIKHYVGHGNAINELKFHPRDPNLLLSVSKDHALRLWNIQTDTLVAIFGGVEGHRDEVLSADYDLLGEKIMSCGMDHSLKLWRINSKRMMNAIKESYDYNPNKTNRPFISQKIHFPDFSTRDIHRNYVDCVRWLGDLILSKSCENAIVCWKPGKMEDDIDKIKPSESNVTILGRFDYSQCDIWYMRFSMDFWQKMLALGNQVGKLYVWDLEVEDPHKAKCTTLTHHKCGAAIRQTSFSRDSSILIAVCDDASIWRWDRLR
UniProt Q15022, whole entry: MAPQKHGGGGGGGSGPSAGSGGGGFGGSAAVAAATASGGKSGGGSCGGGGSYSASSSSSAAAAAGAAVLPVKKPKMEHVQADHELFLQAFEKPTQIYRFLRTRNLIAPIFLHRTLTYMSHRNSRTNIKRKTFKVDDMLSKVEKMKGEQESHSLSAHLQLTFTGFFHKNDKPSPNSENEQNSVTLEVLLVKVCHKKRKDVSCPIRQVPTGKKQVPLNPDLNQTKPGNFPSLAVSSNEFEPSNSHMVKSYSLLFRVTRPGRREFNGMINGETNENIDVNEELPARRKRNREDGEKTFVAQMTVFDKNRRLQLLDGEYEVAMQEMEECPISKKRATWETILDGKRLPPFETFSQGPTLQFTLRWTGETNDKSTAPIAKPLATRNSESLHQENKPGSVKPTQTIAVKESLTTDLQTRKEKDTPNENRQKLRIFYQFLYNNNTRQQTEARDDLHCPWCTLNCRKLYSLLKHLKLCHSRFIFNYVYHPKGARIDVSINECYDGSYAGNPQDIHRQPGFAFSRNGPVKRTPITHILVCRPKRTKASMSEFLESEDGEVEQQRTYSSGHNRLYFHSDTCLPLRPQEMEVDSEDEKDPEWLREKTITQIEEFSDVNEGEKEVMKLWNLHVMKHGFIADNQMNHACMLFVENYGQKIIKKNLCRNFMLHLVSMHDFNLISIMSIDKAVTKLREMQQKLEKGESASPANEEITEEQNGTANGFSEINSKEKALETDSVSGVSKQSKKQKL

in vitro-transcribed/translated FLAG-USP7 (from UniProt Q93009 1-1102) (enzyme)
binding [1]: binds

recombinant EZH2, in vitro-transcribed/translated (from UniProt Q15910-2 1-751)
binding [2]: binds

ubiquitin-specific protease 7 (USP7), endogenous (from UniProt Q93009 1-1102) (enzyme)
binding [3]: binds | binding [4]: binds

recombinant EED, in vitro-transcribed/translated (from UniProt O75530 1-441)
binding [2]: no binding

recombinant SUZ12, in vitro-transcribed/translated (from UniProt Q15022 1-739)
binding [2]: no binding
